Results deposited as PubChem BioAssay AID1259405 (NCATS, 2018)

Test: 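Mouse-designed siRNAs used to find CHO productivity engineering targets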 (primary screen)
System: Chinese hamster CHO-K1 ovary cells with stable secreted eGFP expression
Knock-down reagent: single siRNA against mouse genes, 0.8 pmol siRNA per well (2 µl of 400 nM stock)
Duration: 3 days
Detection: 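Per-well intracellular GFP measured by laser scanning cytometry, plus viability from ATP luminescence, each relative to plate median of non-targeting control wells, in %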
Scale: GFP, % of control: higher = more GFP per well, higher productivity; viability (ATP), % of control: higher = more viable cells (more ATP)
Call rule: 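Called active when intracellular GFP, relative to negative control, is at or above 120%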
This is an unselected part of about 50,000 reagents. In the full data, about 4,000 (8%) got an active call. 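Mouse siRNA library applied to hamster cells; one well for each siRNA.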 Unmarked entries are inactive.

After knock-down of Cbx6 [SID363546132], the screen gave GFP, % of control 84.2; viability (ATP), % of control 88.3.
Depletion of Cbx6 [SID363549645] gave: GFP, % of control 87.3; viability (ATP), % of control 76.7.
With knock-down of Cbx6 [SID363563451], the record shows GFP, % of control 61.1; viability (ATP), % of control 63.4.
Silencing of Csf2 [SID363541363] came out at: GFP, % of control 63.6; viability (ATP), % of control 46.7.
For Csf2 [SID363555990] the deposit lists GFP, % of control 116; viability (ATP), % of control 90.2.
Csf2 [SID363566279] showed GFP, % of control 69.5; viability (ATP), % of control 72.1.
After knock-down of Cstb [SID363573014], the screen gave GFP, % of control 66; viability (ATP), % of control 52.8.
After knock-down of Cstb [SID363577590] the results were GFP, % of control 82; viability (ATP), % of control 45.5.
Cstb [SID363581110] scored GFP, % of control 97.1; viability (ATP), % of control 87.3.
Silencing of Pidd1 [SID363540516] came out at: GFP, % of control 53.2; viability (ATP), % of control 62.9.
Depletion of Pidd1 [SID363542268] gave: GFP, % of control 136 (active); viability (ATP), % of control 51.6.
For Pidd1 [SID363567184] the deposit lists GFP, % of control 138 (active); viability (ATP), % of control 56.
After knock-down of Zfyve16 [SID363582605], the screen gave GFP, % of control 110; viability (ATP), % of control 118.
With knock-down of Zfyve16 [SID363584365] the results were GFP, % of control 67.6; viability (ATP), % of control 75.3.
After knock-down of Zfp41 [SID363573641] the results were GFP, % of control 84.4; viability (ATP), % of control 71.5.
Knock-down of Zfp41 [SID363581385] came out at: GFP, % of control 71.1; viability (ATP), % of control 82.9.
Zfp41 [SID363583849] showed GFP, % of control 105; viability (ATP), % of control 103.
